From PubChem BioAssay AID2685 (National Center for Advancing Translational Sciences (NCATS), 2010)
The other results are listed elsewhere or left out. Shown are side measurements of this screen, not its main read-out; they come without a call. The list favours compounds with an active or inconclusive main result. Potencies come from curve fits of mixed quality, noted in brackets.

Assay: qHTS Assay for Lipid Storage Modulators in Drosophila S3 Cells;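 on cell number change: cells counted by Cell Tracker Red CMTPX staining in the red channel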
Conditions: BODIPY lipid droplet fluorescence, 18-24 h; for cell number change: measured here: cell count max response, cells fed with added oleic acid
Outline: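 Drosophila S3 cells got compounds at several concentrations plus oleic acid (400 uM solution). Laser-scanning cytometry with 488 nm excitation read lipid droplets at 500-530 nm and cells at 575-640 nm. Percent activity was relative to 20 uM Triacsin C.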

[1] = measured here: lipid fluorescence (Fed channel) AC50, cells fed with added oleic acid
[2] = measured here: cell number channel AC50, cells fed with added oleic acid

Row | SMILES | cell number change | AC50 [1] | AC50 [2]
1 | Cc1cc(/C=N/NC(=O)C(=O)NCc2ccccn2)c(C)n1-c1ccccc1 | 12.2% | 0.116 µM [rising, full curve, poor fit] | 
2 | O=C(N/C(=C\c1ccc([N+](=O)[O-])cc1)C(=O)N1CCOCC1)c1ccco1 | 14.7% | 0.206 µM [falling, single point] | 
3 | Cc1onc(-c2c(F)cccc2Cl)c1C(=O)OCc1nnc(-c2ccccc2)o1 | 12.6% |  | 
4 | Fc1ccc(CSc2ncnc3nc[nH]c23)cc1 |  | 0.58 µM [falling, single point] | 
5 | N#CC1=C(N)Oc2n[nH]c(-c3ccccc3)c2C12C(=O)Nc1ccccc12 (stereo not drawn) | 1.28% | 29.1 µM [rising, single point] | 
6 | Cc1c(C(=O)Nc2nonc2-c2ccc(F)cc2)oc2ccc(F)cc12 | 21.5% | 0.517 µM [falling, full curve] | 
7 | Cc1cc(NC(=O)CSc2nc3sc4c(c3c(=O)n2C)CCCC4)no1 | 0.315% |  | 
8 | OCC[C@@H]1C[C@@H](O)[C@H](O)[C@@]2(OCCc3ccccc32)O1 | 9.88% | 29.1 µM [rising, single point] | 
9 | COc1ccc(CNC(=O)c2ccc[nH]2)cc1 | -12.7% | 16.4 µM [falling, single point] | 
10 | O=C1C2CC=C(Cl)CC2C(=O)N1CC1Cc2ccccc2CO1 (stereo not drawn) | 2.24% | 6.51 µM [falling, single point] | 
11 | O=C(NCCc1ccccc1)C(=O)NCC1CCCN1S(=O)(=O)c1cccs1 (stereo not drawn) | 24.9% |  | 
12 | COc1cc(C)ccc1Oc1nc(-c2ccccc2O)nc2ccccc12 | 25.1% | 0.411 µM [rising, full curve, poor fit] | 1.03 µM [rising, full curve, poor fit]
13 | COc1ccc(OC)c(-c2nc(C(=O)NCCCN3CCOCC3)cc3c2[nH]c2ccccc23)c1 | 7.08% | 16.4 µM [falling, single point] | 
14 | COc1cc(C(=O)Nc2ccn(C)n2)ccc1OC(F)F | 38.6% | 11.6 µM [rising, single point] | 16.4 µM [rising, single point]
15 | O=C(NCc1ccccc1)c1ccc(S(=O)(=O)N2CCCC2)cc1 | 12.7% | 3.66 µM [falling, partial curve] | 
16 | CN(CCCC(=O)Nc1ccc(OC(F)F)cc1)S(=O)(=O)c1ccc(F)cc1 | -15.8% | 29.1 µM [falling, single point] | 
17 | CCOc1ccc(CNS(=O)(=O)c2cc(CN3C(=O)c4cccnc4C3=O)ccc2OC)cc1 | -19.2% | 6.51 µM [rising, single point] | 
18 | COc1ccc(-c2cn3ccccc3n2)cc1OC | -34.4% |  | 23.1 µM [falling, partial curve]
19 | CCN(CC(=O)Nc1c(F)cccc1F)C(=O)CCN1C(=O)C2CCCCC2C1=O (stereo not drawn) | -0.803% |  | 
20 | COc1ccc(C(=O)OCC(=O)NCC2CCCCC2)cc1S(=O)(=O)N1CCCc2ccccc21 | 50.8% | 6.51 µM [rising, single point] | 11.6 µM [rising, partial curve]
21 | Cc1ccc(NC(=O)[C@H](C)NC(=O)C2CCN(C(=O)[C@H](CC(C)C)NC(=O)OC(C)(C)C)CC2)cc1 | 37.5% |  | 14.6 µM [rising, partial curve]
22 | CC(C)(C)c1cc(=O)n2c(C#N)c(C#N)nc2[nH]1 | -14.6% | 2.59 µM [falling, full curve, poor fit] | 
23 | Cc1ccccc1-c1nc2c(s1)CCc1onc(-c3ccc(Cl)cc3)c1-2 | -38.6% | 29.1 µM [falling, partial curve, poor fit] | 29.1 µM [falling, single point]
24 | Cc1noc(C)c1COc1ccc(C(=O)OCC(=O)Nc2ccc(S(N)(=O)=O)cc2)cc1 | -59.3% | 2.31 µM [falling, full curve] | 2.59 µM [falling, full curve]
25 | Cc1nnc2sc(SCc3cccc(Cl)c3)nn2c1=O |  |  | 2.59 µM [rising, single point]
26 | Cc1c(C(=O)N/N=C/c2ccc(-c3ccccc3[N+](=O)[O-])o2)sc(N)c1C#N | -35.1% | 6.51 µM [rising, single point] | 13 µM [falling, partial curve, poor fit]
27 | Cc1nnc(SCCn2c(N3CCN(C)CC3)nc3c2c(=O)[nH]c(=O)n3C)s1 | -10.2% | 20.6 µM [rising, single point] | 
28 | CC(C(=O)Nc1nc2ccccc2[nH]1)N1C(=O)C2CC=CCC2C1=O (stereo not drawn) | -12.7% | 2.91 µM [rising, partial curve] | 
29 | CCC(C)C(NC(=O)c1ccc(Cl)cc1)C(=O)Nc1cccnc1 (stereo not drawn) | 75.9% |  | 20.6 µM [rising, single point]

Reprinted at random: 2 records from the list
Row | SMILES | cell number change | AC50 [1] | AC50 [2]
16 | CN(CCCC(=O)Nc1ccc(OC(F)F)cc1)S(=O)(=O)c1ccc(F)cc1 | -15.8% | 29.1 µM [falling, single point] | 
15 | O=C(NCc1ccccc1)c1ccc(S(=O)(=O)N2CCCC2)cc1 | 12.7% | 3.66 µM [falling, partial curve] | 
